# Source: the supplement of paper PMC8728848
# Some of the results follow.
# B1: AT5G24760(45) (Arabidopsis thaliana), Q8LEB2 (protein)
# chain: MSASSSSFEQPQVITCNAAVAWRAGEPLVMEEVEVSPPQPLEIRIKVVCTSLCRSDLSAWESQSLLPRIFGHEAAGIVESIGEGVTEFEKGDHVLAVFTGECGSCRHCISGKSNMCQVLGMERKGLMHSDQKTRFSIKGKPVYHYCAVSSFSEYTVVHSGCAVKVDPLAPLHKICLLSCGVAAGLGAAWNVADVQKGSSVVIFGLGTVGLSVAQGAKLRGAAQILGVDINPAKAEQAKTFGVTDFINSNDLSEPIPQVIKRMTGGGADFSFECVGDTGIATTALQSCSDGWGMTVTLGVPKAKPEVSAHYGLFLSGKSLKGTLFGGWKPKSDLPSLIDKYMNKEIMIDEFITHNLSFDEINKAFVLMREGKCLRCVLHMPK
# Legend:
# Experiment in all cases: glycan array binding signal (z-score within array); higher = stronger binding
# Details in all cases: glycan notation: IUPAC condensed, linker removed
# [1] = target: Gal(b1-4)GlcNAc(b1-3)Gal(b1-4)GlcNAc(b1-3)[Gal(b1-4)GlcNAc(b1-3)Gal(b1-4)GlcNAc(b1-6)]GalNAc
# Summary of the method: (§1)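 Glycan array data came from 3228 arrays in the Consortium for Functional Glycomics database, and only arrays with an available protein sequence were kept. Glycan names were put into IUPAC-condensed notation, and columns mapping to the same glycan were averaged. The binding signal is a within-array Z-score, averaged across arrays of one protein sequence run at different concentrations or buffers and across linkers. A negative Z-score can be read as non-binding.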
# [2] = target: Gal(b1-4)GlcNAc(b1-3)Gal(b1-4)GlcNAc(b1-6)[Gal(b1-3)]GalNAc
# Summary of the method: as §1
# [3] = target: Gal(b1-4)GlcNAc(b1-3)Gal(b1-4)[Fuc(a1-3)]GlcNAc(b1-3)Gal(b1-4)[Fuc(a1-3)]GlcNAc
# Summary of the method: as §1
# [4] = target: Gal(b1-4)GlcNAc(b1-3)GalNAc
# Summary of the method: as §1
# [5] = target: Gal(b1-4)GlcNAc(b1-3)[Fuc(a1-3)GlcNAc(b1-6)]Gal(b1-4)Glc
# Summary of the method: as §1
# [6] = target: Gal(b1-4)GlcNAc(b1-3)[Gal(b1-4)GlcNAc(b1-6)]Gal(b1-4)GlcNAc
# Summary of the method: as §1
# [7] = target: Gal(b1-4)GlcNAc(b1-3)[GlcNAc(b1-6)]Gal(b1-4)GlcNAc
# Summary of the method: as §1
# [8] = target: Gal(b1-4)GlcNAc(b1-6)Gal(b1-4)GlcNAc
# Summary of the method: as §1
# [9] = target: Gal(b1-4)GlcNAc(b1-6)GalNAc
# Summary of the method: as §1
# [10] = target: Gal(b1-4)GlcNAc(b1-6)[Gal(b1-3)]GalNAc
# Summary of the method: as §1
# [11] = target: Gal(b1-4)GlcNAc(b1-6)[Gal(b1-4)GlcNAc(b1-3)]GalNAc
# Summary of the method: as §1
# Gal(b1-4)GlcNAc6P = target: Gal(b1-4)GlcNAc6P
# Summary of the method: as §1
# Gal(b1-6)Gal = target: Gal(b1-6)Gal
# Summary of the method: as §1
# Gal3S(b1-3)GalNAc = target: Gal3S(b1-3)GalNAc
# Summary of the method: as §1
# Gal3S(b1-3)GlcNAc = target: Gal3S(b1-3)GlcNAc
# Summary of the method: as §1
# [12] = target: Gal3S(b1-3)[Fuc(a1-4)]GlcNAc
# Summary of the method: as §1
# Gal3S(b1-4)Glc = target: Gal3S(b1-4)Glc
# Summary of the method: as §1
# Gal3S(b1-4)Glc6S = target: Gal3S(b1-4)Glc6S
# Summary of the method: as §1
# Gal3S(b1-4)GlcNAc = target: Gal3S(b1-4)GlcNAc
# Summary of the method: as §1
# [13] = target: Gal3S(b1-4)[Fuc(a1-3)]Glc6S
# Summary of the method: as §1
# [14] = target: Gal3S(b1-4)[Fuc(a1-3)]GlcNAc
# Summary of the method: as §1
# [15] = target: Gal3S(b1-4)[Fuc(a1-3)]GlcNAc6S
# Summary of the method: as §1
# Gal3S4S(b1-4)GlcNAc = target: Gal3S4S(b1-4)GlcNAc
# Summary of the method: as §1
# Gal3S6S(b1-4)GlcNAc = target: Gal3S6S(b1-4)GlcNAc
# Summary of the method: as §1
# Gal3S6S(b1-4)GlcNAc6S = target: Gal3S6S(b1-4)GlcNAc6S
# Summary of the method: as §1
# Gal4S(b1-4)GlcNAc = target: Gal4S(b1-4)GlcNAc
# Summary of the method: as §1
# Gal4S6S(b1-4)GlcNAc = target: Gal4S6S(b1-4)GlcNAc
# Summary of the method: as §1
# Gal6P(b1-4)GlcNAc = target: Gal6P(b1-4)GlcNAc
# Summary of the method: as §1
# Gal6S(b1-3)GlcNAc = target: Gal6S(b1-3)GlcNAc
# Summary of the method: as §1
# Gal6S(b1-3)GlcNAc6S = target: Gal6S(b1-3)GlcNAc6S
# Summary of the method: as §1
# Gal6S(b1-4)Glc = target: Gal6S(b1-4)Glc
# Summary of the method: as §1
# Gal6S(b1-4)Glc6S = target: Gal6S(b1-4)Glc6S
# Summary of the method: as §1
# Gal6S(b1-4)GlcNAc = target: Gal6S(b1-4)GlcNAc
# Summary of the method: as §1
# Gal6S(b1-4)GlcNAc6S = target: Gal6S(b1-4)GlcNAc6S
# Summary of the method: as §1
# GalNAc(a1-3)Gal = target: GalNAc(a1-3)Gal
# Summary of the method: as §1
# GalNAc(a1-3)GalNAc = target: GalNAc(a1-3)GalNAc
# Summary of the method: as §1
# [16] = target: GalNAc(a1-3)GalNAc(b1-3)Gal(a1-4)Gal(b1-4)Glc
# Summary of the method: as §1
# [17] = target: GalNAc(a1-3)GalNAc(b1-3)Gal(a1-4)Gal(b1-4)GlcNAc
# Summary of the method: as §1
# GalNAc(b1-3)Gal = target: GalNAc(b1-3)Gal
# Summary of the method: as §1
# [18] = target: GalNAc(b1-3)Gal(a1-4)Gal(b1-4)GlcNAc
# Summary of the method: as §1
# [19] = target: GalNAc(b1-3)Gal(a1-4)Gal(b1-4)GlcNAc(b1-3)Gal(b1-4)Glc
# Summary of the method: as §1
# [20] = target: GalNAc(b1-3)Gal(a1-6)Gal(b1-4)Glc
# Summary of the method: as §1
# GalNAc(b1-3)GalNAc = target: GalNAc(b1-3)GalNAc
# Summary of the method: as §1
# GalNAc(b1-3)GlcNAc = target: GalNAc(b1-3)GlcNAc
# Summary of the method: as §1
# GalNAc(b1-4)Gal(b1-4)Glc = target: GalNAc(b1-4)Gal(b1-4)Glc
# Summary of the method: as §1
binder,measurement,setting,value
B1,glycan array binding signal (z-score),[1],-0.992
same,glycan array binding signal (z-score),[2],-0.013
same,glycan array binding signal (z-score),[3],-0.804
same,glycan array binding signal (z-score),[4],-0.558
same,glycan array binding signal (z-score),[5],-0.055
same,glycan array binding signal (z-score),[6],-0.516
same,glycan array binding signal (z-score),[7],-0.001
same,glycan array binding signal (z-score),[8],0.709
same,glycan array binding signal (z-score),[9],1.23
same,glycan array binding signal (z-score),[10],-0.485
same,glycan array binding signal (z-score),[11],-0.772
same,glycan array binding signal (z-score),Gal(b1-4)GlcNAc6P,-0.892
same,glycan array binding signal (z-score),Gal(b1-6)Gal,0.729
same,glycan array binding signal (z-score),Gal3S(b1-3)GalNAc,-0.241
same,glycan array binding signal (z-score),Gal3S(b1-3)GlcNAc,0.716
same,glycan array binding signal (z-score),[12],0.437
same,glycan array binding signal (z-score),Gal3S(b1-4)Glc,-1.04
same,glycan array binding signal (z-score),Gal3S(b1-4)Glc6S,-0.368
same,glycan array binding signal (z-score),Gal3S(b1-4)GlcNAc,-0.185
same,glycan array binding signal (z-score),[13],2.68
same,glycan array binding signal (z-score),[14],-0.085
same,glycan array binding signal (z-score),[15],0.449
same,glycan array binding signal (z-score),Gal3S4S(b1-4)GlcNAc,-0.005
same,glycan array binding signal (z-score),Gal3S6S(b1-4)GlcNAc,0.315
same,glycan array binding signal (z-score),Gal3S6S(b1-4)GlcNAc6S,-0.871
same,glycan array binding signal (z-score),Gal4S(b1-4)GlcNAc,-0.737
same,glycan array binding signal (z-score),Gal4S6S(b1-4)GlcNAc,2.07
same,glycan array binding signal (z-score),Gal6P(b1-4)GlcNAc,-0.869
same,glycan array binding signal (z-score),Gal6S(b1-3)GlcNAc,-0.214
same,glycan array binding signal (z-score),Gal6S(b1-3)GlcNAc6S,-0.455
same,glycan array binding signal (z-score),Gal6S(b1-4)Glc,-0.157
same,glycan array binding signal (z-score),Gal6S(b1-4)Glc6S,0.137
same,glycan array binding signal (z-score),Gal6S(b1-4)GlcNAc,-0.864
same,glycan array binding signal (z-score),Gal6S(b1-4)GlcNAc6S,-0.4
same,glycan array binding signal (z-score),GalNAc(a1-3)Gal,0.235
same,glycan array binding signal (z-score),GalNAc(a1-3)GalNAc,-0.754
same,glycan array binding signal (z-score),[16],0.166
same,glycan array binding signal (z-score),[17],-0.035
same,glycan array binding signal (z-score),GalNAc(b1-3)Gal,0.412
same,glycan array binding signal (z-score),[18],1.38
same,glycan array binding signal (z-score),[19],-0.632
same,glycan array binding signal (z-score),[20],-0.337
same,glycan array binding signal (z-score),GalNAc(b1-3)GalNAc,-0.086
same,glycan array binding signal (z-score),GalNAc(b1-3)GlcNAc,0.645
same,glycan array binding signal (z-score),GalNAc(b1-4)Gal(b1-4)Glc,1.03

# A different layout for part of the listing above:
binder	measurement	setting	value
B1	glycan array binding signal (z-score)	Gal6S(b1-4)Glc	-0.157
same	glycan array binding signal (z-score)	[19]	-0.632
